The values that follow come from paper PMC5386689.

The chains behind the UniProt entries cited, without tags or fusion partners. Residues count along the entry.
UniProt P11021, residues 19-654: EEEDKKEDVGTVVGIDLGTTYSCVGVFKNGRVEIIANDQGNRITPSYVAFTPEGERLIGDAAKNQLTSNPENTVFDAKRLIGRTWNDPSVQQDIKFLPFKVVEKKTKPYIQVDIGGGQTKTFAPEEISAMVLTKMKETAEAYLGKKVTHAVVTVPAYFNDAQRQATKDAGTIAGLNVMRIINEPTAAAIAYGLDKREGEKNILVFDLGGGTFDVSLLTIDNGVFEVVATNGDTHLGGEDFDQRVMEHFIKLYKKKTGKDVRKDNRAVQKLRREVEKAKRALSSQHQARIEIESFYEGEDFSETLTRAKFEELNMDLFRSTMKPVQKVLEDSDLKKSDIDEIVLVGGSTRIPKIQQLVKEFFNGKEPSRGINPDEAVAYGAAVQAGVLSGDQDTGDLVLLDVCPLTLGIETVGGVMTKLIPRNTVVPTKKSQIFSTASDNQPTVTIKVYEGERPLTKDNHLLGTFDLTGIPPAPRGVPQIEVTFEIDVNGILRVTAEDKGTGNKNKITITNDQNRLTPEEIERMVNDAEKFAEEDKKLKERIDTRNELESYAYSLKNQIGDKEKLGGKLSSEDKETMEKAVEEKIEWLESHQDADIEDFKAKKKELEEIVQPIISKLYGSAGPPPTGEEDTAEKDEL

These are yes or no findings as the source states them, for the method shown. Binding seen in cells or lysates may run through a third protein. Some results given as binding are weak or reduced against the parent protein; the word gives no strength.

This assay has as its target recombinant human GRP78 (rhGRP78), bait of the GST pull-down (human) (UniProt P11021). The assay can be described thus: pull-down; GST pull-down with rhGRP78 as the bait; EGFR from SMMC7721 and PLC cells, detected in the precipitates; only the target purified.

In the case of “epidermal cell growth factor receptor (EGFR), endogenous in SMMC7721 and PLC cells (from UniProt P00533 25-1210)”, the binding entry is “binds”.
